{"source": "paper PMC11382152", "about": "(The Journal of Organic Chemistry, 2024)", "key": {"[1]": {"system": "Staphylococcus aureus (MRSA) ATCC 700698", "experiment": "MIC assay", "type": "cell-based", "conditions": "ATCC700698|MRSA"}, "[2]": {"system": "Staphylococcus aureus (MSSA) ATCC 29213", "experiment": "MIC assay", "type": "cell-based", "conditions": "ATCC29213|MSSA"}}}
{"compound": "CN[C@H](CC(C)C)C(=O)N[C@H]1C(=O)N[C@@H](CC(N)=O)C(=O)N[C@H]2C(=O)N[C@H]3C(=O)N[C@H](C(=O)N[C@H](C(=O)O)c4cc(O)cc(O)c4-c4cc3ccc4O)[C@H](O)c3ccc(c(Cl)c3)Oc3cc2cc(c3O[C@@H]2O[C@H](CO)[C@@H](O)[C@H](O)[C@H]2O[C@H]2C[C@](C)(N)[C@H](O)[C@H](C)O2)Oc2ccc(cc2Cl)[C@H]1O", "note": "[vancomycin]", "values": [{"measurement": "MIC", "setting": "[1]", "value": 4, "unit": "µg/mL"}, {"measurement": "MIC", "setting": "[2]", "value": 1, "unit": "µg/mL"}]}
